In PubChem BioAssay AID330 (DTP/NCI, 2004):
The list shows only some results of the screen, not a fair sample: it is rich in T/C values a quarter to a half above the control, in often repeated tests (any T/C) and in doses without a T/C. Further doses and runs are listed elsewhere. T/C is the treated group as % of the vehicle group. Some entries give survivors of the animals treated and no T/C: the source holds a T/C of zero for them, seemingly a mark for toxic or unscored doses. Some doses without a T/C left all or most animals alive at the check, yet need not have been tolerated: survival well below the control is almost never listed, so the zero probably covers shortened survival too. Survivors were counted at the toxicity check, usually on the fifth day, unless a day is given; later deaths do not show. Schedule codes are those of the source, taken here to give the interval after Q, in days (D) or hours (H), and the number of doses after X. Signs of the kind (2×) give the number of equal values in this list. Some doses were run more than once; the values are given in rising order. For survival time, this PubChem deposit counts one and a half times the control or more as active, and values a quarter to a half above the control carry no call in these data; other NCI protocols may use other cut-offs. Some T/C values are followed by the survivors on the day toxicity was checked, most often the fifth; without a count, all were alive then.

Tested on: P388 leukemia ip, CD2F1 mice, survival T/C
Test: NCI In Vivo Anticancer Drug Screen. Data for tumor model P388 Leukemia (intraperitoneal) in CD2F1 (CDF1) mice
Conditions: T/C endpoint: median survival time, higher T/C = longer survival
[1] = dose: 0.2 mg/kg/injection, schedule: Q01DX009 (ip), vehicle: carboxymethylcellulose (CMC)
[2] = dose: 50.0 mg/kg/injection, schedule: Q01DX009 (ip), vehicle: Klucel (hydroxypropylcellulose) (HPC)
[3] = dose: 200.0 mg/kg/injection, schedule: Q01DX009 (ip), vehicle: Klucel (hydroxypropylcellulose) (HPC)
[4] = dose: 100.0 mg/kg/injection, schedule: Q01DX005 (ip), vehicle: Klucel (hydroxypropylcellulose) (HPC)
[5] = dose: 200.0 mg/kg/injection, schedule: Q01DX005 (ip), vehicle: Klucel (hydroxypropylcellulose) (HPC)
[6] = dose: 200.0 mg/kg/injection, schedule: Q01DX005 (ip), vehicle: saline
[7] = dose: 200.0 mg/kg/injection, schedule: Q01DX001 (ip), vehicle: Klucel (hydroxypropylcellulose) (HPC)
[8] = dose: 400.0 mg/kg/injection, schedule: Q01DX001 (ip), vehicle: Klucel (hydroxypropylcellulose) (HPC)
[9] = dose: 50.0 mg/kg/injection, schedule: Q01DX009 (ip), vehicle: saline
[10] = dose: 100.0 mg/kg/injection, schedule: Q01DX009 (ip), vehicle: saline
[11] = dose: 200.0 mg/kg/injection, schedule: Q01DX009 (ip), vehicle: saline
[12] = dose: 12.5 mg/kg/injection, schedule: Q01DX009 (ip), vehicle: saline with Tween-80
[13] = dose: 25.0 mg/kg/injection, schedule: Q01DX009 (ip), vehicle: saline with Tween-80
[14] = dose: 50.0 mg/kg/injection, schedule: Q01DX009 (ip), vehicle: saline with Tween-80
[15] = dose: 100.0 mg/kg/injection, schedule: Q01DX009 (ip), vehicle: saline with Tween-80
[16] = dose: 200.0 mg/kg/injection, schedule: Q01DX009 (ip), vehicle: saline with Tween-80
[17] = dose: 100.0 mg/kg/injection, schedule: Q01DX001 (ip), vehicle: Klucel (hydroxypropylcellulose) (HPC)

SMILES: CCC(C)Nc1ccc(N)cc1 (stereo unspecified)
- T/C (dose: 0.01 mg/kg/injection, schedule: Q01DX009 (ip), vehicle: carboxymethylcellulose (CMC)): 142 % of control
- T/C (dose: 0.02 mg/kg/injection, schedule: Q01DX009 (ip), vehicle: carboxymethylcellulose (CMC)): 128 % of control
- T/C (dose: 0.05 mg/kg/injection, schedule: Q01DX009 (ip), vehicle: carboxymethylcellulose (CMC)): 141 and 145 % of control
- T/C (dose: 0.1 mg/kg/injection, schedule: Q01DX009 (ip), vehicle: carboxymethylcellulose (CMC)): 128 % of control [5 of 6 alive]
- T/C [1]: 134 % of control [5 of 6 alive]
- survivor count [1]: 0 of 6 and 6 of 6
- T/C (dose: 0.4 mg/kg/injection, schedule: Q01DX009 (ip), vehicle: carboxymethylcellulose (CMC)): 138 % of control
- survivor count (dose: 0.8 mg/kg/injection, schedule: Q01DX009 (ip), vehicle: carboxymethylcellulose (CMC)): 1 of 6 and 3 of 6
- survivor count (dose: 1.56 mg/kg/injection, schedule: Q01DX009 (ip), vehicle: carboxymethylcellulose (CMC)): 2 of 6
- survivor count (dose: 3.12 mg/kg/injection, schedule: Q01DX009 (ip), vehicle: carboxymethylcellulose (CMC)): 0 of 6
- survivor count (dose: 6.25 mg/kg/injection, schedule: Q01DX009 (ip), vehicle: carboxymethylcellulose (CMC)): 0 of 6
- T/C (dose: 12.5 mg/kg/injection, schedule: Q01DX009 (ip), vehicle: Klucel (hydroxypropylcellulose) (HPC), evaluated on day 20): 88 % of control
- T/C (dose: 12.5 mg/kg/injection, schedule: Q01DX009 (ip), vehicle: Klucel (hydroxypropylcellulose) (HPC), evaluated on day 30): 90 % of control (2×)
- survivor count (dose: 12.5 mg/kg/injection, schedule: Q01DX009 (ip), vehicle: Klucel (hydroxypropylcellulose) (HPC)): 5 of 6
- survivor count (dose: 25.0 mg/kg/injection, schedule: Q01DX009 (ip), vehicle: Klucel (hydroxypropylcellulose) (HPC)): 0 of 6 (2×)
- survivor count [2]: 0 of 6 (2×)
- survivor count (dose: 100.0 mg/kg/injection, schedule: Q01DX009 (ip), vehicle: Klucel (hydroxypropylcellulose) (HPC)): 0 of 6 (2×)
- survivor count [3]: 0 of 6 (2×)
- survivor count (dose: 400.0 mg/kg/injection, schedule: Q01DX009 (ip), vehicle: Klucel (hydroxypropylcellulose) (HPC)): 0 of 6 (2×)

SMILES: CCN(CC)CCNC(=O)c1cc(Cl)c(C(=O)NO)cc1OC
- survivor count (dose: 50.0 mg/kg/injection, schedule: Q01DX005 (ip), vehicle: Klucel (hydroxypropylcellulose) (HPC)): 0 of 6
- survivor count [4]: 0 of 6
- survivor count [5]: 0 of 6

SMILES: O/N=C1\CN2CCC1CC2
- survivor count [6]: 1 of 6

SMILES: O=[N+]([O-])c1ccc(NN=NCCCl)cc1
- T/C (dose: 25.0 mg/kg/injection, schedule: Q01DX009 (ip), vehicle: distilled water + Tween-80): 128 % of control
- T/C (dose: 50.0 mg/kg/injection, schedule: Q01DX009 (ip), vehicle: distilled water + Tween-80): 128 % of control
- survivor count (dose: 100.0 mg/kg/injection, schedule: Q01DX009 (ip), vehicle: distilled water + Tween-80): 5 of 5
- survivor count (dose: 200.0 mg/kg/injection, schedule: Q01DX009 (ip), vehicle: distilled water + Tween-80): 0 of 5

SMILES: O=c1[nH]c2nc3ccccc3n2nc1-c1ccccc1
- survivor count [7]: 2 of 6
- survivor count [8]: 0 of 6

SMILES: CC(=O)Oc1cc(OC(C)=O)c2c(c1)C(=O)c1cc(C)cc(OC(C)=O)c1C2=O
- survivor count (dose: 200.0 mg/kg/injection, schedule: Q04DX002 (ip), vehicle: saline with Tween-80): 6 of 6
- survivor count (dose: 400.0 mg/kg/injection, schedule: Q04DX002 (ip), vehicle: saline with Tween-80): 6 of 6

SMILES: CCOC(=O)NN
- survivor count [9]: 0 of 6 and 1 of 6
- survivor count [10]: 0 of 6
- survivor count [11]: 0 of 6
- survivor count (dose: 400.0 mg/kg/injection, schedule: Q01DX009 (ip), vehicle: saline): 0 of 6

SMILES: ClC1=C(Cl)C2(Cl)C3C4CC(C5OC45)C3C1(Cl)C2(Cl)Cl (stereo unspecified)
- T/C [12]: 135 % of control
- survivor count [12]: 5 of 6
- survivor count [13]: 1 of 6 and 5 of 6
- survivor count [14]: 2 of 6
- survivor count [15]: 1 of 6
- survivor count [16]: 1 of 6

SMILES: C=Cc1ccccc1 (tested in a mixture with another compound)
- survivor count (dose: 50.0 mg/kg/injection, schedule: Q01DX005 (ip), vehicle: saline): 0 of 6
- survivor count [17]: 0 of 6
- survivor count (dose: 100.0 mg/kg/injection, schedule: Q01DX005 (ip), vehicle: saline): 0 of 6
- survivor count [7]: 0 of 6
- survivor count [6]: 0 of 6
- survivor count [8]: 0 of 6

SMILES: Nc1ncnc2ccccc12
- survivor count [3]: 3 of 6

SMILES: CSC(=S)N/N=C(\c1ccccc1)c1ccccn1
- survivor count (dose: 3.12 mg/kg/injection, schedule: Q01DX009 (ip), vehicle: saline with Tween-80): 6 of 6
- survivor count [13]: 6 of 6
- survivor count [14]: 6 of 6
- survivor count [15]: 6 of 6
- survivor count [16]: 2 of 6

SMILES: CCCCCCOc1cccc(OCCCC[N+]2(CC)CCCCC2)c1
- survivor count [9]: 0 of 6
- survivor count [10]: 0 of 6
- survivor count [11]: 0 of 6

SMILES: CCCOc1ccc2c(NCCCCCCCCNc3c4ccccc4nc4cc(OCCC)ccc34)c3ccccc3nc2c1
- T/C (dose: 1.25 mg/kg/injection, schedule: Q01DX009 (ip), vehicle: other): 127 % of control
- T/C (dose: 2.5 mg/kg/injection, schedule: Q01DX009 (ip), vehicle: lactic acid): 142 % of control
- T/C (dose: 2.5 mg/kg/injection, schedule: Q01DX009 (ip), vehicle: other): 130 % of control
- T/C (dose: 3.75 mg/kg/injection, schedule: Q01DX009 (ip), vehicle: other): 125 % of control
- T/C (dose: 5.0 mg/kg/injection, schedule: Q01DX009 (ip), vehicle: other): 139 % of control
- survivor count (dose: 10.0 mg/kg/injection, schedule: Q01DX009 (ip), vehicle: other): 0 of 4
- survivor count (dose: 15.0 mg/kg/injection, schedule: Q01DX009 (ip), vehicle: other): 0 of 4
- survivor count (dose: 20.0 mg/kg/injection, schedule: Q01DX009 (ip), vehicle: lactic acid): 0 of 6
- survivor count (dose: 20.0 mg/kg/injection, schedule: Q01DX009 (ip), vehicle: other): 0 of 4

SMILES: O=S(=O)(F)c1ccc(Cl)cc1C[P+](c1ccccc1)(c1ccccc1)c1ccccc1
- T/C (dose: 50.0 mg/kg/injection, schedule: Q01DX001 (ip), vehicle: Klucel (hydroxypropylcellulose) (HPC)): 125 [5 of 6 alive] and 131 % of control
- survivor count [17]: 0 of 6

SMILES: CCOC(=O)c1ccc2cc(C)c3ccc(N)nc3n2c1=O
- survivor count (dose: 50.0 mg/kg/injection, schedule: Q01DX005 (ip), vehicle: saline with Tween-80): 5 of 5

SMILES: COc1cccc(/C=N/NC(=S)Nc2cc(C(F)(F)F)cc(C(F)(F)F)c2)c1O
- survivor count [4]: 3 of 5
- survivor count [5]: 2 of 5

SMILES: C=C(CNC(C)(C)C)C(=O)c1ccccc1
- survivor count [9]: 0 of 6
- survivor count [10]: 0 of 6
- survivor count [11]: 0 of 6

SMILES: NNc1n[nH]c(=S)n1N
- survivor count [2]: 2 of 6

SMILES: S=C(S)N1CCCC1
- survivor count [11]: 5 of 6

SMILES: C/C(=N\NC(=S)NC12CC3CC(CC(C3)C1)C2)c1ccccn1
- survivor count (dose: 400.0 mg/kg/injection, schedule: Q04DX003 (ip), vehicle: saline with Tween-80): 4 of 6
